From patent US20090221440A1 come the findings set out here.

No constants are given. Whether binding was seen depends on the method and setting. Some entries that bind do so weakly or less than the wild type.

This experiment deals with IFP-F[1]-AKT1, P31749. Kind of experiment: IFP fragment complementation (PCA) in HeLa Tet-on cells. To be noted: remark: other sources report otherwise.

B1: PDK1-IFP-F[2], O15530 1-556 (enzyme, UniProt O15530 1-556, looked up, not shown: large carriers)
chain: MARTTSQLYDAVPIQSSVVLCSCPSPSMVRTQTESSTPPGIPGGSRQGPAMDGTAAEPRPGAGSLQHAQPPPQPRKKRPEDFKFGKILGEGSFSTVVLARELATSREYAIKILEKRHIIKENKVPYVTRERDVMSRLDHPFFVKLYFTFQDDEKLYFGLSYAKNGELLKYIRKIGSFDETCTRFYTAEIVSALEYLHGKGIIHRDLKPENILLNEDMHIQITDFGTAKVLSPESKQARANSFVGTAQYVSPELLTEKSACKSSDLWALGCIIYQLVAGLPPFRAGNEYLIFQKIIKLEYDFPEKFFPKARDLVEKLLVLDATKRLGCEEMEGYGPLKAHPFFESVTWENLHQQTPPKLTAYLPAMSEDDEDCYGNYDNLLSQFGCMQVSSSSSSHSLSASDTGLPQRSGSNIEQYIHDLDSNSFELDLQFSEDEKRLLLEKQAGGNPWHQFVENNLILKMGPVDKRKGLFARRRQLLLTEGPHLYYVDPVNKVLKGEIPWSQELRPEAKNFKTFFVHTPNRTYYLMDPSGNAHKWCRKIQEVWRQRYQSHPDAAVQ
For the molecule B1, the binding entry was “binds”.
